Test results published in patent publication US20020122768A1 (priority 2000, published 2002).

Experiment: general procedure: Boc solid-phase peptide synthesis; p-nitrobenzophenone oxime resin (substitution 0.69 mmol/g or 0.95 mmol/g); HBTU, DIPEA
Settings: TFA salt; for final HPLC purity / crude HPLC purity: Analytical HPLC Method 1 (HP 1050, Vydac C18, diode array detector 220 nm)

In the case of “2-(1,4,7,10-tetraaza-4,7,10-tris(t-butoxycarbonylmethyl)-1-cyclododecyl)acetyl-Glu(cyclo{Lys-Arg-Gly-Asp-D-Phe})-cyclo{Lys-Arg-Gly-Asp-D-Phe}”, the “final HPLC purity” value (conjugation step) is reported as “Purity=99%”.

For “Boc-Glu(cyclo{Lys-Arg-Gly-Asp-D-Phe})-cyclo{Lys-Arg-Gly-Asp-D-Phe}”, the “crude HPLC purity” value (conjugation step) was “Purity=73%” and the conjugation yield (conjugation step) was 44%.

For “Cyclo{Arg(Tos)-Gly-Asp(OBzl)-D-Phe-Lys(Cbz)}”, the “crude HPLC purity” value (whole synthesis, scale of the general procedure 0.5 g (or 1 g) of the oxime resin per teabag) was “Purity=89%”.

For “Glu(cyclo{Lys-Arg-Gly-Asp-D-Phe})-cyclo{Lys-Arg-Gly-Asp-D-Phe}”, the “crude HPLC purity” value (late stage modification step) was “Purity=73%” and the step yield (late stage modification step) was 100%.

With cyclo{Arg-Gly-Asp-D-Phe-Lys} the “final HPLC purity” value (late stage modification step) was “Purity=100%” and the step yield (late stage modification step) was 71%.
